68 compounds from PubChem BioAssay AID662 (National Center for Advancing Translational Sciences (NCATS), 2007) can be followed below.

This is one part of the list. Shown are side measurements of this screen, not its main read-out; they come without a call. Compounds called inactive in the main read-out are mostly missing here. Words in brackets tell the shape of the fitted curve; partial curves, single points and poor fits give uncertain potencies.

The assay can be described thus: Cell signaling CRE-BLA (Fsk stim). The conditions noted are these: CHO CRE-bla reporter (cAMP response element driving beta-lactamase), forskolin EC10, beta-lactamase ratio; measured here: 460 nm blue channel. An outline of the steps: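 Using CellSensor CRE-bla CHO cells in Opti-MEM with 0.5% dialyzed FBS, compounds were titrated with EC10 NKH 477 for 3 h at 37 °C. CCF4 ratio (460/530 nm) gave %Activity; AC50 derived.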
Usually AC50 stands for the concentration giving half of the maximal activity seen. For `O=C(c1ccco1)N1CCC(c2nc(-c3ccc(F)cc3)no2)CC1`, the AC50 was 31.6 µM [falling, single point]. Take `CCC1(c2ccccc2)NC(=O)N(CC(=O)Nc2ccc3c(c2)OCO3)C1=O` (stereo not drawn): the AC50 was 3.16 µM [falling, partial curve, poor fit]. With `COCCCNC(=O)CSc1nc2ccc(N3CCOCC3)cc2c(=O)n1CCc1ccccc1`, the AC50 was 0.00316 µM [rising, full curve, poor fit]. Turning to `COc1ccc(-c2noc(-c3ccccc3C(=O)Nc3cccnc3)n2)cc1`, the AC50 was 3.16 µM [falling, single point]. As for `CCCc1noc(-c2ccc(-c3ccccc3)cc2)n1`, the half-maximal activity concentration (AC50) was 0.0251 µM [falling, full curve, poor fit]. On to `COc1cccc(-c2ccc3ncnc(NCc4cccs4)c3c2)c1`, for which the AC50 is 15.8 µM [falling, single point]. As for `c1ccc(-c2csc3nnc(SCc4ccc5c(c4)OCCO5)n23)cc1`, the AC50 was 7.94 µM [rising, partial curve]. In the case of `Cn1c(=O)c2c(nc(CN3CCC(C(N)=O)CC3)n2Cc2c(F)cccc2Cl)n(C)c1=O` it was 10 µM [rising, partial curve]. In the case of `COc1ccc(C(C)=O)cc1CSc1nc2ccccc2o1` it was 6.31 µM [rising, partial curve]; in that of `Cc1ccc(C)c(C(=O)c2c(C)nc3sccn23)c1`, 15.8 µM [rising, single point]; in that of `COCCn1c(=O)c(-c2ccc(Cl)cc2)nc2cnc(N(C)C)nc21`, 15.8 µM [rising, partial curve]. Turning to `CO[C@@]12C[C@@H](COC(=O)c3cncc(Br)c3)CN(C)[C@H]1Cc1cn(C)c3cccc2c13`, the AC50 was 31.6 µM [falling, single point]. Take `CCOc1ccc(C(=O)N(CN2CCCC2=O)c2ccccc2)cc1`: the AC50 is 0.0158 µM [falling, full curve, poor fit]. In the case of `N#Cc1ccccc1NC(=O)c1ccccc1OCC(=O)NCc1ccco1`, the AC50 is 12.6 µM [falling, single point]. To `CCOc1ccc(NC(=O)CSc2nnc(-c3ccccn3)n2N)cc1` belongs 3.98 µM [falling, full curve, poor fit]; to `Cc1nc(N2CCC3(CC2)OCCO3)c2nnn(Cc3ccccc3F)c2n1`, 0.126 µM [falling, full curve]. Turning to `Cc1ccccc1Cc1c(C)nc2c(C(=O)NCc3ccco3)cnn2c1C`, the AC50 is 1.58 µM [rising, partial curve]. For the compound `Cc1cnc(N)c2c(=O)oc3ccccc3c12`, the AC50 was 12.6 µM [rising, partial curve]. Regarding `CCN1C(=O)c2ccccc2S(=O)c2ccc(C(=O)NCc3ccccn3)cc21` (stereo not drawn), the AC50 was 12.6 µM [rising, single point]. On to `COC(=O)c1ccccc1NC(=O)CSc1nc2ccccc2c(=O)[nH]1`, for which the AC50 was 1 µM [rising, full curve]. To `COC(=O)Cc1c(C)c2ccc(OC(=O)c3ccco3)cc2oc1=O` belongs 12.6 µM [rising, partial curve].

On to `O=C(Nc1nccs1)c1ccc(COc2ccc(Cl)cc2)o1`, for which the AC50 was 12.6 µM [rising, single point].

Turning to `O=C(NCCO)c1ccc2c(c1)S(=O)(=O)c1ccccc1C2=O`, the concentration at half-maximal activity (AC50) was 12.6 µM [rising, single point]. Consider `COc1cc(C(=O)Nc2nc3ccccc3[nH]2)cc(OC)c1OC`, for which the AC50 is 2 µM [rising, single point]. Turning to `COCCNC(=O)c1cc2c(-c3ccccc3F)nn(C)c2s1`, the AC50 was 6.31 µM [rising, partial curve].

On to `COc1cc(NC(=O)c2ccc3c(=O)n(Cc4ccco4)c(=S)[nH]c3c2)cc(OC)c1OC`, for which the AC50 is 0.501 µM [falling, partial curve].

For the compound `CCNc1nc(NC(C)(C)C)nc(SC(C(C)=O)C(C)=O)n1`, the half-maximal activity concentration (AC50) is 12.6 µM [rising, partial curve]. As for `O=C(Cn1nnc(-c2ccccc2F)n1)Nc1cccc2ncccc12`, the AC50 is 0.00398 µM [falling, full curve, poor fit]. In the case of `O=C(Nc1ccccc1C(=O)OCC(=O)N1CCc2ccccc2C1)c1ccco1` it was 12.6 µM [rising, single point]; in that of `CN1CCN(C2=C(Cl)C(=O)N(c3ccc(Cl)c(Cl)c3)C2=O)CC1`, 12.6 µM [falling, partial curve]. With `O=C(Cn1nnc(-c2ccccc2NC(=O)C2CC2)n1)NC1CCCCC1`, the AC50 was 15.8 µM [falling, partial curve].

Regarding `CCOc1ccc(OCC)c(Nc2cc(C)nc3ncnn23)c1`, the AC50 is 10 µM [rising, partial curve]. Regarding `CCC(C)NC(=O)Cn1c(=O)n(-c2ccccc2)c(=O)c2ccc(C(=O)NCc3ccco3)cc21` (stereo not drawn), the AC50 was 5.01 µM [rising, single point].

On to `O=C(CN1CCN(Cc2ccccc2)CC1)c1c[nH]c2ccccc12`, for which the AC50 was 12.6 µM [falling, partial curve]. For the compound `COc1nc(NCc2ccc(Cl)cc2)nc(OC)n1`, the AC50 was 0.00316 µM [falling, full curve, poor fit]. To `CCOC(=O)c1sc2c(c1C)C(c1cccs1)C1=C(CCCC1=O)N2` (stereo not drawn) belongs 6.31 µM [rising, partial curve]; to `COCCCN1C(=O)C(O)=C(C(=O)c2ccco2)C1c1ccccc1` (stereo not drawn), 3.98 µM [falling, single point]. Regarding `CCN(CC)CCSc1nc(O)c(C(C)C)c(=O)[nH]1`, the AC50 is 5.01 µM [rising, single point]. Take `CCN1CCN(c2nc(SC)nc3sc4c(c23)CC(C)(C)OC4)CC1`: the AC50 was 31.6 µM [falling, single point]. For the compound `O=C(Cn1c(=O)oc2ccccc21)c1ccccc1`, the AC50 is 5.01 µM [falling, single point].

As for `COc1cccc(NC(=O)N(Cc2cc3cc(C)cc(C)c3[nH]c2=O)CC2COCCO2)c1` (stereo not drawn), the AC50 was 5.01 µM [falling, single point]. For the compound `Cc1ccccc1-c1nc(CS(=O)CC(=O)NCCN2CCN(Cc3ccccc3)CC2)c(C)o1` (stereo not drawn), the AC50 was 0.00794 µM [falling, full curve, poor fit]. For `Cc1cccc(C(=O)Nc2ccccc2C(=O)OCc2c(C)noc2C)c1`, the AC50 is 12.6 µM [rising, partial curve]. In the case of `Nc1nc(CN2CCN(c3cccc(Cl)c3)CC2)nc(N2CCCc3ccccc32)n1`, the half-maximal activity concentration (AC50) was 15.8 µM [falling, single point]. To `CCNc1nc(OCCNS(=O)(=O)c2cc(C)ccc2C)nc(N(C)C)n1` belongs 10 µM [rising, single point].

`Cc1ccc2nc(CSc3nnc(-c4ccco4)n3-c3ccccc3)cc(=O)n2c1`: the AC50 was 10 µM [rising, partial curve].

Consider `COc1cccc(/C=N/n2c(SC)nnc2-c2ccccc2)c1OC`, for which the half-maximal activity concentration (AC50) was 3.16 µM [rising, full curve].

With `Cn1nnnc1SCC(=O)N1CCN(Cc2ccccc2)CC1`, the AC50 was 12.6 µM [rising, single point]. Regarding `COc1cc(C(=O)Nc2nnc(-c3sccc3C)s2)cc(OC)c1OC`, the AC50 was 5.01 µM [falling, partial curve].

In the case of `CCOC(=O)CN=C1CC(C)(C)CC2=C1Sc1ncnc(N(C)C)c1N2`, the concentration at half-maximal activity (AC50) is 20 µM [rising, single point]. Consider `COC(=O)c1c(-c2ccncc2)csc1NC(=O)c1ccoc1C`, for which the AC50 is 0.0316 µM [rising, single point]. On to `N#Cc1c2c(c(N3CCN(c4ccccn4)CC3)n3c1nc1ccccc13)CCC2`, for which the AC50 was 15.8 µM [rising, partial curve]. In the case of `COc1ccc2cc(CN(C(=O)Nc3ccccc3OC)C3CCCC3)c(=O)[nH]c2c1`, the AC50 was 12.6 µM [rising, partial curve]. For the compound `COc1ccc(C)cc1Nc1cc(C)nc2nc(C)nn12`, the AC50 is 12.6 µM [rising, partial curve]. In the case of `NC(=O)c1c(-c2ccccc2)oc2ccc(O)cc12`, the AC50 was 10 µM [falling, partial curve, poor fit]. As for `CCOC(=O)C(Oc1ccc(=O)n(-c2ccccc2)n1)C(C)=O` (stereo not drawn), the AC50 is 0.316 µM [rising, partial curve]. As for `C=CCn1c(=O)c(C(=O)Nc2ccccc2O)c(O)c2ccccc21`, the AC50 is 15.8 µM [rising, single point].

As to `N#Cc1cc2c(nc1SCC(=O)Nc1nccs1)CCCCC2`, the AC50 was 12.6 µM [rising, partial curve]. For the compound `N#CCCn1c(=O)c(-c2ccc(Cl)cc2)nc2cnc(N3CCOCC3)nc21`, the AC50 was 10 µM [rising, partial curve]. For the compound `C[N+](C)(C)CCC(=O)c1cccc2ccccc12`, the AC50 was 15.8 µM [falling, partial curve]. For `O=C(NNS(=O)(=O)c1ccccc1)c1cccnc1`, the AC50 was 0.0126 µM [rising, full curve, poor fit]. As for `N#Cc1c(N)nc(SC2CCCCC2=O)c(C#N)c1-c1ccco1` (stereo not drawn), the AC50 is 10 µM [rising, partial curve].

As for `COCCn1c(=O)c(-c2cc(F)cc(F)c2)nc2cnc(N3CCNCC3)nc21`, the AC50 is 3.16 µM [rising, full curve].

As to `Nc1ccc(-c2nc3c(Cl)cc(N)cc3[nH]2)cc1`, the AC50 is 20 µM [falling, single point]. As for `COCCOC(=O)c1c(C)oc2ccc(OC(=O)c3ccc4c(c3)OCO4)cc12`, the AC50 was 1.26 µM [rising, partial curve]. With `CC(C)C[C@H](NC(=O)NCc1ccccc1Cl)C(=O)O`, the AC50 is 5.01 µM [falling, full curve]. Regarding `Fc1ccc2[nH]c3c(N4CCN(c5ccccc5)CC4)ncnc3c2c1`, the AC50 was 10 µM [falling, partial curve]. Turning to `O=C(NCc1ccco1)c1cc2cc3ccc(Cl)cc3nc2o1`, the half-maximal activity concentration (AC50) is 0.631 µM [rising, partial curve].
